# Some of the results follow. The data scatter; read single values as rough.
# Legend:
# [1] = compound: ClCC(=O)N[C@@H]1CCCc2ccccc12; assay: log2 mean competition ratio of IA-DTB cysteine labelling (DMSO/compound) (log2 ratio); higher = stronger cysteine engagement by compound; settings: treatment time: 4 h, cell line lysate: HEK293T
# Protocol: (§1)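 IA-DTB competitive cysteine chemoproteomics in HEK293T RIPA lysate. Lysates were treated with compound 29 or 30 at 50 or 200 µM for 4 h, then IA-DTB (500 µM, 1 h), trypsin-digested, NeutrAvidin-enriched and analysed by diaPASEF. Competition ratio = intensity DMSO / intensity compound (n=4 treated, n=64 DMSO); binding: mean log2 CR ≥ 1 and p ≤ 0.05 plus QC filters. Target is the cysteine site.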
# [2] = compound: ClCC(=O)N[C@H]1CCCc2ccccc12; assay: as above; settings: treatment time: 4 h, cell line lysate: HEK293T
# Protocol: as §1
Target,log2 mean competition ratio ([1]; 50 µM),log2 mean competition ratio ([1]; 200 µM),log2 mean competition ratio ([2]; 50 µM),log2 mean competition ratio ([2]; 200 µM)
"QARS1 C556, A0A0U1RR66",0.427,0.102,0.0761,-0.364
PRR3 C143 (UniProt P79522),0.00486,-0.083,-0.149,-0.08
PSME2 C5 (UniProt Q9UL46),0.0741,0.191,0.2,0.261
RAD54B C251 (UniProt Q9Y620),-0.143,0.384,0.0183,0.145
RAB3GAP2 C608 (UniProt Q9H2M9),0.365,0.748,-0.0975,0.713
RAB39A C149,-0.193,-0.144,0.263,0.0968
RAB1A C126 (UniProt P62820),0.0821,-0.182,0.116,-0.106
RADIL C671,0.0611,0.311,0.0612,0.46
PXK C196 (UniProt Q7Z7A4),0.122,-0.209,-0.256,-0.15
PSME3IP1 C187,-0.209,0.531,-0.206,0.375
PWWP3A C372,0.231,-0.171,-0.018,-0.315
PRRC2B C726,0.357,0.07,0.156,0.215
PTPN3 C549 (UniProt P26045),-0.258,-0.0211,-0.306,-0.0634
RAB34 C19,-0.154,-0.143,-0.273,-0.109
RAC1 C6 (UniProt P63000),-0.0852,-0.0253,-0.207,-0.0843
PRRC2B C1212,0.256,0.419,0.254,0.289
RABGGTA C371 (UniProt Q92696),-0.134,0.0115,0.00915,0.00506
PSMA6 C78 (UniProt P60900),-0.233,-0.0557,0.508,-0.174

# 2 entries from above, as tab-separated lines:
Target	log2 mean competition ratio ([1]; 50 µM)	log2 mean competition ratio ([1]; 200 µM)	log2 mean competition ratio ([2]; 50 µM)	log2 mean competition ratio ([2]; 200 µM)
RAC1 C6 (UniProt P63000)	-0.0852	-0.0253	-0.207	-0.0843
PRRC2B C1212	0.256	0.419	0.254	0.289

# Further records follow:

Target,log2 mean competition ratio ([1]; 50 µM),log2 mean competition ratio ([1]; 200 µM),log2 mean competition ratio ([2]; 50 µM),log2 mean competition ratio ([2]; 200 µM)
PXN C108 (UniProt P49023),0.108,0.123,0.271,0.0889
RABEPK C243 (UniProt Q7Z6M1),0.088,-0.585,-0.027,-0.705
PSMA1 C182 (UniProt P25786),0.363,0.224,0.027,0.0852
PTPRG C858 (UniProt P23470),-0.194,-0.108,-0.456,-0.322
RAD51AP1 C254 (UniProt Q96B01),0.0157,-0.049,0.29,0.0686
PUS1 C260 (UniProt Q9Y606),-0.0555,0.108,-0.0313,0.187
RABGAP1L C139 (UniProt Q5R372),0.219,-0.169,0.573,-0.114
RAB14 C26 (UniProt P61106),0.0474,-0.0561,-0.24,-0.213
PRRC2B C819,0.00534,0.0523,0.0405,0.238
PSMD1 C898,-0.143,0.0481,0.249,0.136
RAB28 C31 (UniProt P51157),0.0939,-0.0139,-0.407,0.158
RABGGTA C532 (UniProt Q92696),-0.243,0.0781,0.48,0.264
PTDSS1 C347 (UniProt P48651),-0.511,0.161,-0.107,0.255
PSMC3IP C107 (UniProt Q9P2W1),0.23,0.141,0.0014,0.254
RABGAP1 C941 (UniProt Q9Y3P9),-0.479,-0.268,-0.138,-0.279
"QARS1 C298, A0A0U1RR66",0.36,-0.0739,0.112,-0.281
RABGAP1 C476 (UniProt Q9Y3P9),-0.228,0.0088,0.00979,-0.162

# Source: the supplement of paper PMC11732987, “Enantioselective OTUD7B fragment discovery through chemoproteomics screening and high-throughput optimisation” (Communications Chemistry, 2025)
